Data set [1] in a line: Boc solid-phase peptide synthesis; Boc-Leu-PAM resin; DCC and HOBT. The following applies: whole synthesis, scale 0.5 mmol.
Data set [2] is described as follows: Boc solid-phase peptide synthesis; MBHA resin; DCC and HOBT. Particulars: whole synthesis, scale 0.5 mmol.

Among the data in US6130204A (Merck & Co., Inc., priority 1998, dated 2000) are crude mass values, retold here.

* marks the point of attachment. Fmoc = O=C(OCC1c2ccccc2-c2ccccc21)*

Regarding Ac-K(Fmoc)YQSSSL-OH, the crude mass in data set [1] is 0.46 g.
In data set [2], “NH2 -Leu-Asn-Lys(Fmoc)-Ala-Ser-Tyr-Gln-Ser-Ser-Ser-Leu-Amide” displayed a crude mass of 750 mg.
